Assay results as given in PMC12343990.
These are yes or no findings as the source states them, for the method shown. In cells and extracts the contact can be indirect. Some results given as binding are weak or reduced against the parent protein; the word gives no strength. For some assays here: Sequences can lack the tags named with a protein.

The chains behind the UniProt entries cited, without tags or fusion partners.
UniProt Q8CFN5: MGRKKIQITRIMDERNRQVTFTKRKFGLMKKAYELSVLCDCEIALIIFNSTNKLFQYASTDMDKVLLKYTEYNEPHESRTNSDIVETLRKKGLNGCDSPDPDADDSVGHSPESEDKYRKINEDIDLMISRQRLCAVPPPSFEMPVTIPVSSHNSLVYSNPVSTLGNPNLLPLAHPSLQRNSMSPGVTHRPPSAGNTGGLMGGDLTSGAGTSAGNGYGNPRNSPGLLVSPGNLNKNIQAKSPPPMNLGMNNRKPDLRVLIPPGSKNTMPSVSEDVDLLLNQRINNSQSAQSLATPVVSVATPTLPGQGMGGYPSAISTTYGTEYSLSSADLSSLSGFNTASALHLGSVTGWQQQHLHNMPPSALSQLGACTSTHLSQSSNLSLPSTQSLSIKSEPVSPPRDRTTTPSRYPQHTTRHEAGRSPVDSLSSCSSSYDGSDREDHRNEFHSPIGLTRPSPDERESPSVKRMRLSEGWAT

Legend:
[1] = target: T1, vinculin (mouse (endogenous in MLO-Y4)) (UniProt Q64727); assay: co-IP; MLO-Y4 cells with and without overexpression of HA-vinculin and Flag-Mef2c, lysed in RIPA buffer at 4 °C; supernatant incubated with primary antibody or IgG overnight, then Protein A/G Magnetic Beads 1 h at room temperature; washed three times with IP buffer; SDS-PAGE and western blotting
T1 sequence: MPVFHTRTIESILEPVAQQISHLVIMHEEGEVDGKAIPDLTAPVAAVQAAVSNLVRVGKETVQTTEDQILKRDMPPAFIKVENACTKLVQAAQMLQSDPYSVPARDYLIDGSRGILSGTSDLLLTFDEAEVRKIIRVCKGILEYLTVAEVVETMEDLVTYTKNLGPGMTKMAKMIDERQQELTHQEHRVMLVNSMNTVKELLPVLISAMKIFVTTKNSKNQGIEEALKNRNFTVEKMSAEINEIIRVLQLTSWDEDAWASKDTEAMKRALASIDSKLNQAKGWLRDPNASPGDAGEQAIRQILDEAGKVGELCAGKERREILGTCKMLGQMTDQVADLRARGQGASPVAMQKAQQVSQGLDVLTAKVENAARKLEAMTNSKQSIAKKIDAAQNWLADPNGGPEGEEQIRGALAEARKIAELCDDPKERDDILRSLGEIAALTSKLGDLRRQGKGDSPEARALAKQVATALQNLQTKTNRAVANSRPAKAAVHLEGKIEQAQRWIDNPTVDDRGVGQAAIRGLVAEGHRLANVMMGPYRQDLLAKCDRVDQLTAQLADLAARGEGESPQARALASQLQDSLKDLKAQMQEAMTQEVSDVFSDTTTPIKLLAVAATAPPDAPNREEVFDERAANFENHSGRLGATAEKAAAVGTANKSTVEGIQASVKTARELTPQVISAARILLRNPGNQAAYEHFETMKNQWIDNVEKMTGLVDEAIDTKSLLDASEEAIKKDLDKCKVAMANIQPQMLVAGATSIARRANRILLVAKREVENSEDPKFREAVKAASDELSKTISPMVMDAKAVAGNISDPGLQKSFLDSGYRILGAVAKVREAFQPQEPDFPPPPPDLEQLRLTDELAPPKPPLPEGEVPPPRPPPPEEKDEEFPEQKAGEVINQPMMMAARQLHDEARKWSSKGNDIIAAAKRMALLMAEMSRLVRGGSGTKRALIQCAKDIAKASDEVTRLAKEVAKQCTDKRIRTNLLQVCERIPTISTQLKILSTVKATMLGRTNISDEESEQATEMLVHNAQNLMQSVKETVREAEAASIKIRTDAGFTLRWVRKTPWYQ

HA-vinculin = target: T2, HA-vinculin (UniProt Q64727); assay: as above
T2 sequence: T1 sequence

Substance | binding [1] | binding (HA-vinculin)
Mef2c (from UniProt Q8CFN5 1-474) | binds | –
Flag-Mef2c (from UniProt Q8CFN5 1-474) | – | binds
